# Patent publication US20040054130A1, “Insulin potentiating peptides” (priority 2000, published 2004)
# Some entries share one result that the patent states for a list of compounds. Square brackets hold non-standard residues; d marks the D form. Ends that are not written are not given here.
# Tested on: Zucker (fa/fa) rat hemidiaphragm muscle
# Experiment: In vitro glycogen synthesis (glucose incorporation into glycogen) in hemidiaphragm muscle with exogenous insulin
# Format: cell-based
# Settings: in the presence of 1 mU/ml exogenous insulin; effect increased up to 1 μmol/ml
# Protocol: In vitro insulin-potentiating effects of the synthetic peptide analogues were assessed by measuring the rates of exogenous glucose incorporation into glycogen in rat hemidiaphragms (Lim et al, 1992). Hemidiaphragms from overnight-fasted Zucker fatty(fa/fa) female rats were dissected, and divided into segments of approximate 35-50 mg each. Tissues from the same rat were used for all groups. The tissue was incubated in 2 ml of Krebs-Ringer bicarbonate (KRB) buffer (pH 7.4) containing [^14C]glucose (5.5 mM, final specific activity 0.05 mCi/mmol) under an atmosphere of 95% 02-5% CO2 at 37° C. for 1.5 hr. After incubation, tissues were removed, washed with cold buffer and blotted. Tissues were digested, the muscle glycogen was precipitated and the ^14C-radioactivity was counted in a Wallac 1410 liquid scintillation counter. The biological activity of peptide analogues was measured as the rate of mmol glucose incorporation into muscle glycogen/g tissue/hr.
# The sensitivity of hemidiaphragm muscle tissue to insulin (0.1-100 mU/ml) on glycogen synthesis was first analyzed. The dose response curves for peptide analogues on the insulin-potentiating effect to glycogen synthesis were then measured using cumulative increasing concentrations (10^−3 10 μmol/ml) of peptides in the presence of insulin (1 mU/ml). The biological activity of each peptide analogue was measured as the rate of glucose incorporation into muscle glycogen (μmol/g tissue/hr), and represented by the mean±SEM from eight determinations.
# To determine the insulin-potentiating effect of the peptide analogues, the rates of incorporation of glucose into muscle glycogen were measured. The rates of glycogen synthesis (μmol/g tissue/hr) were 0.52±0.05, 0.60±0.04, 1.27±0.06 and 1.52±0.07 inresponse to 0.33, 1, 3.33 and 10 mU/ml insulin respectively, as shown in FIG. 1.
# The insulin-potentiating effect of the peptide analogues was then observed by studying their dose response. curves for glucose incorporation into glycogen in the presence of 1 mU/ml exogenous insulin. The effects of peptides 1, 3, 4, 6, 7, 8 and 10 were evident at doses higher than 0.01 μmol/ml, and continued to increase with increasing peptide concentration to 1 μmol/ml, as shown in FIGS. 2A and 2B.
# The activity of each analogue was assessed by in vitro measurement of glycogen synthesis in muscle, as described above.
row,Substance,peptide dose above which the insulin-potentiating effect was evident
1,R[dA]FF-NH2 [Peptide 3],higher than 0.01 μmol/ml
2,Arg-Leu-Phe-Asu-Asn-Ala [Peptide 6],higher than 0.01 μmol/ml
3,Arg-Leu-Phe-Phe-NH2 (RLFF; C-terminal amide; MOD_RES (4) AMIDATION) [Peptide 4],higher than 0.01 μmol/ml
4,Leu-Ser-Arg-Leu-Tyr-Asu-Asn-Ala [Peptide 10],higher than 0.01 μmol/ml
5,Leu-Ser-Lys-Leu-Phe-Asu-Asn-Ala [Peptide 8],higher than 0.01 μmol/ml
6,Arg-Gly-Phe-Phe-NH2 (RGFF; C-terminal amide; MOD_RES (4) AMIDATION) [Peptide 1],higher than 0.01 μmol/ml
7,Leu-Ser-Arg-Leu-Phe-Asu-Asn-Ala [Peptide 7],higher than 0.01 μmol/ml
